Assay results: US7332602B2, “Pyridyl substituted heterocycles useful for treating or preventing HCV infection” (Rigel Pharmaceuticals, Inc., priority 2002, dated 2008)
Some entries share one result that the patent states for a list of compounds.

System: liver cells including an HCV replicon (5-2 Luc cells, 9-13 cells or Huh-7 cells)
Experiment: cytotoxicity assay (Cell Titer Glo)
Format: cell-based
Conditions: 48 hr with compound, ATP-dependent Cell Titer Glo; read-out: IC50 (cytotoxicity, number of viable cells)
Protocol: Compounds 1, 3, 7, 9, 11, 13, 17, 19, 21, 27, 29, 31, 33, 35, 37, 39, 47, 49, 51, 57 and 69 were tested in a cytotoxicity assay with liver cells including an HCV replicon (5-2 Luc cells, 9-13 cells or Huh-7 cells). In the assay, cells were seeded onto 96-well plates (approx. 7500 cells/well in a volume of 90 μl) and grown for 24 hr at 37° C. On day 2, various concentrations of test compound (in a volume of 10 μl) were added to the wells and the cells were grown for an additional 48 hr at 37° C. On day 4, an ATP-dependent R-Luciferase assay (Cell Titer Glo assay) was performed to determine the number of viable cells.

“2,2-Dichloro-N-[5-[3-[2-chloro-6-[4-(N-2-pyridyl)pipera phenyl])5-isoxazolyl]-(3-pyridyl)] Acetamide [Compound 69]” gave an IC50 of at least 10 µM.
For O=C(Nc1cccc(-c2cc(-c3cc(Cl)nc(Cl)c3)no2)c1)C(Cl)Cl [Compound 11, 2,2-Dichloro-N-[3-[3-[(2,6-dichloro)-4-pyridyl]-5-isoxazolyl]phenyl] Acetamide], the IC50 was at least 10 µM.
With O=C(Nc1ccnc(-c2cc(-c3c(F)cccc3S(=O)(=O)NN3CCOCC3)no2)c1)C(Cl)Cl [Compound 47] the IC50 was at least 10 µM.
